## Percent effect of library compounds

Mtb cholesterol medium: 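Growth of Mycobacterium tuberculosis over 4 days (cholesterol / DPPC medium with tyloxapol); the read-out is not stated. Concentration: 50 µM. The record gives no direction; compounds that gave an IC50 in retests scored well above the rest, so higher reads as more growth inhibition. Of about 69,000 compounds tested this way, about 370 (0.54%) reached 50% or more in at least one test.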
Mtb glucose medium: 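Phenotypic screen: M. tuberculosis growth, glucose 7H9 medium, 3 days; the read-out is not stated. Tested at 50 µM. Higher reads as more growth inhibition (inferred: compounds with an IC50 in retests scored well above the rest). Size under these conditions: about 69,000 compounds, about 760 of them at 50% or above in at least one test.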

Values are the deposited “Percent Effect”, in %. The controls that fix the scale are not given in the record; negative values are as filed. Compounds were drawn at random from those tested, without regard to their results. Two or more numbers in one place are separate tests of the same structure; such repeats can differ widely.

For COc1ccc(N2CCCC3(C2)CN(c2cccnc2)CCO3)cc1.O=C(O)C(F)(F)F (stereo not given) the result was Mtb cholesterol medium: 1.307%; Mtb glucose medium: 4.669%.
For [H][C@@]12CC(=O)N(C)[C@@]1([H])CCN2C(=O)c1ccc[nH]1 the result was Mtb cholesterol medium: -23.39%; Mtb glucose medium: -29.96%.
For c1cnnc(N2CCCC(NCc3nc(C4CC4)no3)C2)c1 (stereo not given) the result was Mtb cholesterol medium: -3.96%; Mtb glucose medium: 7.06%.
For CCn1nc(C)c2c1cnn2CCNS(=O)(=O)c1ccccc1 the result was Mtb cholesterol medium: -7.906%; Mtb glucose medium: -10.06%.
For CCS(=O)(=O)N1CCN(C)c2ncccc2C1 the result was Mtb cholesterol medium: -9.663%; Mtb glucose medium: -8.417%.
For CCc1cnc(N)nc1N1CCN(C(C)=O)CC1 the result was Mtb cholesterol medium: 10.55%; Mtb glucose medium: -16%.
For F[C@@H]1CN(Cc2cccnc2)C[C@@H]1OCc1nc2ccccc2[nH]1 the result was Mtb cholesterol medium: 0.6017%; Mtb glucose medium: 7.574% and -3.519%.
For Cc1nc(CCNC(=O)NC2CCCc3c2cnn3CCO)cs1 (stereo not given) the result was Mtb cholesterol medium: -11.94% and 2.562%; Mtb glucose medium: -9.692%.
For CNc1cc(-c2ccc(COCCN)cc2)c2cc[nH]c2n1 the result was Mtb cholesterol medium: 4.533%; Mtb glucose medium: 34.92%.
For COc1ccc2c(ccn2CC(=O)N2CCCC2c2cnn(C)c2)c1 (stereo not given) the result was Mtb cholesterol medium: 5.863%; Mtb glucose medium: 5.049% and -22.52%.
For Cc1cc(NCCCNS(C)(=O)=O)nc2ccccc12 the result was Mtb cholesterol medium: -8.428%; Mtb glucose medium: -8.905% and 5.207%.
For Cc1cnn(CC2CCCN2Cc2nc(C)c3ccccc3n2)c1 (stereo not given) the result was Mtb cholesterol medium: -13.75%; Mtb glucose medium: 22.05%.
For O=C(O)C(F)(F)F.[H][C@@]12CCN(c3ncccn3)C[C@]1(COc1nccc(C)n1)CCO2 the result was Mtb cholesterol medium: -36.62%; Mtb glucose medium: -26.85%.
For CC(C)(C)CC(=O)N1CC[C@@H](CC(=O)O)[C@@H](CCN2CCCCC2)C1 the result was Mtb cholesterol medium: 20.69%; Mtb glucose medium: 5.376% and -14.17%.
For COc1c(F)cccc1C(=O)NC(C)c1cnn(C)c1 (stereo not given) the result was Mtb cholesterol medium: -0.4586%; Mtb glucose medium: 14.97%.
For O=C(O)C(F)(F)F.O=C(O)C(F)(F)F.[H][C@@]12OCCN(Cc3ccc(OC)cc3)[C@@]1([H])CC[C@H]2OCc1ccncc1 the result was Mtb cholesterol medium: -6.168%; Mtb glucose medium: -10.26%.
For CCOc1ccc(C(=O)NC2CC2)cc1C the result was Mtb cholesterol medium: 19.51%; Mtb glucose medium: -3.017% and 18.35%.
For CCCc1nnsc1C(=O)NCC1CCN(c2ccccn2)CC1 the result was Mtb cholesterol medium: 7.216%; Mtb glucose medium: 60.95% and 19.67%.
For COc1ccc(-c2nc(CNCCn3cccn3)cs2)cc1 the result was Mtb cholesterol medium: 29.31%; Mtb glucose medium: 30.32%.
For COc1ccc(OC)c2c(C)cc(N(CCO)CCO)nc12 the result was Mtb cholesterol medium: 10.12%; Mtb glucose medium: -4.367%.
For CN(C)c1nc2c(c(N3CCc4ccccc4C3)n1)CCNC2 the result was Mtb cholesterol medium: 39.95% and 39.02%; Mtb glucose medium: 59.44%.
For O=C(CCCC1CCCC1)NS(=O)(=O)CC1CC1 the result was Mtb cholesterol medium: 20.81%; Mtb glucose medium: 17.54%.
For CN1CCN(C(=O)c2cc3occc3n2Cc2ccccc2F)CC1 the result was Mtb cholesterol medium: -11.12%; Mtb glucose medium: 7.23% and -1.677%.
For Cc1cc(C(=O)CN2CCN(c3cnccn3)CC2)c(C)n1C(C)C the result was Mtb cholesterol medium: -9.088%; Mtb glucose medium: -15.69% and 0.8601%.

For reference, 2 entries once more:

{"compound": "c1cnnc(N2CCCC(NCc3nc(C4CC4)no3)C2)c1", "stereo": "stereo not given", "Mtb cholesterol medium": -3.96, "Mtb glucose medium": 7.06}
{"compound": "CCOc1ccc(C(=O)NC2CC2)cc1C", "Mtb cholesterol medium": 19.51, "Mtb glucose medium": "-3.017 and 18.35"}

Data taken from ChEMBL document CHEMBL3988442, “University of Dundee, Small-Polar-MMV Screening Library” (2021).